# Assay results as given in the supplement of paper PMC12067093, “Discovery and optimisation of a covalent ligand for TRIM25 and its application to targeted protein ubiquitination” (Chemical Science, 2025).
# By UniProt entry, the sequences of proteins in these tests, tags left out. Where a name states a change or a piece, a line headed by the entry shows the natural chain unless it says otherwise.
# UniProt Q14643, whole entry, looked up: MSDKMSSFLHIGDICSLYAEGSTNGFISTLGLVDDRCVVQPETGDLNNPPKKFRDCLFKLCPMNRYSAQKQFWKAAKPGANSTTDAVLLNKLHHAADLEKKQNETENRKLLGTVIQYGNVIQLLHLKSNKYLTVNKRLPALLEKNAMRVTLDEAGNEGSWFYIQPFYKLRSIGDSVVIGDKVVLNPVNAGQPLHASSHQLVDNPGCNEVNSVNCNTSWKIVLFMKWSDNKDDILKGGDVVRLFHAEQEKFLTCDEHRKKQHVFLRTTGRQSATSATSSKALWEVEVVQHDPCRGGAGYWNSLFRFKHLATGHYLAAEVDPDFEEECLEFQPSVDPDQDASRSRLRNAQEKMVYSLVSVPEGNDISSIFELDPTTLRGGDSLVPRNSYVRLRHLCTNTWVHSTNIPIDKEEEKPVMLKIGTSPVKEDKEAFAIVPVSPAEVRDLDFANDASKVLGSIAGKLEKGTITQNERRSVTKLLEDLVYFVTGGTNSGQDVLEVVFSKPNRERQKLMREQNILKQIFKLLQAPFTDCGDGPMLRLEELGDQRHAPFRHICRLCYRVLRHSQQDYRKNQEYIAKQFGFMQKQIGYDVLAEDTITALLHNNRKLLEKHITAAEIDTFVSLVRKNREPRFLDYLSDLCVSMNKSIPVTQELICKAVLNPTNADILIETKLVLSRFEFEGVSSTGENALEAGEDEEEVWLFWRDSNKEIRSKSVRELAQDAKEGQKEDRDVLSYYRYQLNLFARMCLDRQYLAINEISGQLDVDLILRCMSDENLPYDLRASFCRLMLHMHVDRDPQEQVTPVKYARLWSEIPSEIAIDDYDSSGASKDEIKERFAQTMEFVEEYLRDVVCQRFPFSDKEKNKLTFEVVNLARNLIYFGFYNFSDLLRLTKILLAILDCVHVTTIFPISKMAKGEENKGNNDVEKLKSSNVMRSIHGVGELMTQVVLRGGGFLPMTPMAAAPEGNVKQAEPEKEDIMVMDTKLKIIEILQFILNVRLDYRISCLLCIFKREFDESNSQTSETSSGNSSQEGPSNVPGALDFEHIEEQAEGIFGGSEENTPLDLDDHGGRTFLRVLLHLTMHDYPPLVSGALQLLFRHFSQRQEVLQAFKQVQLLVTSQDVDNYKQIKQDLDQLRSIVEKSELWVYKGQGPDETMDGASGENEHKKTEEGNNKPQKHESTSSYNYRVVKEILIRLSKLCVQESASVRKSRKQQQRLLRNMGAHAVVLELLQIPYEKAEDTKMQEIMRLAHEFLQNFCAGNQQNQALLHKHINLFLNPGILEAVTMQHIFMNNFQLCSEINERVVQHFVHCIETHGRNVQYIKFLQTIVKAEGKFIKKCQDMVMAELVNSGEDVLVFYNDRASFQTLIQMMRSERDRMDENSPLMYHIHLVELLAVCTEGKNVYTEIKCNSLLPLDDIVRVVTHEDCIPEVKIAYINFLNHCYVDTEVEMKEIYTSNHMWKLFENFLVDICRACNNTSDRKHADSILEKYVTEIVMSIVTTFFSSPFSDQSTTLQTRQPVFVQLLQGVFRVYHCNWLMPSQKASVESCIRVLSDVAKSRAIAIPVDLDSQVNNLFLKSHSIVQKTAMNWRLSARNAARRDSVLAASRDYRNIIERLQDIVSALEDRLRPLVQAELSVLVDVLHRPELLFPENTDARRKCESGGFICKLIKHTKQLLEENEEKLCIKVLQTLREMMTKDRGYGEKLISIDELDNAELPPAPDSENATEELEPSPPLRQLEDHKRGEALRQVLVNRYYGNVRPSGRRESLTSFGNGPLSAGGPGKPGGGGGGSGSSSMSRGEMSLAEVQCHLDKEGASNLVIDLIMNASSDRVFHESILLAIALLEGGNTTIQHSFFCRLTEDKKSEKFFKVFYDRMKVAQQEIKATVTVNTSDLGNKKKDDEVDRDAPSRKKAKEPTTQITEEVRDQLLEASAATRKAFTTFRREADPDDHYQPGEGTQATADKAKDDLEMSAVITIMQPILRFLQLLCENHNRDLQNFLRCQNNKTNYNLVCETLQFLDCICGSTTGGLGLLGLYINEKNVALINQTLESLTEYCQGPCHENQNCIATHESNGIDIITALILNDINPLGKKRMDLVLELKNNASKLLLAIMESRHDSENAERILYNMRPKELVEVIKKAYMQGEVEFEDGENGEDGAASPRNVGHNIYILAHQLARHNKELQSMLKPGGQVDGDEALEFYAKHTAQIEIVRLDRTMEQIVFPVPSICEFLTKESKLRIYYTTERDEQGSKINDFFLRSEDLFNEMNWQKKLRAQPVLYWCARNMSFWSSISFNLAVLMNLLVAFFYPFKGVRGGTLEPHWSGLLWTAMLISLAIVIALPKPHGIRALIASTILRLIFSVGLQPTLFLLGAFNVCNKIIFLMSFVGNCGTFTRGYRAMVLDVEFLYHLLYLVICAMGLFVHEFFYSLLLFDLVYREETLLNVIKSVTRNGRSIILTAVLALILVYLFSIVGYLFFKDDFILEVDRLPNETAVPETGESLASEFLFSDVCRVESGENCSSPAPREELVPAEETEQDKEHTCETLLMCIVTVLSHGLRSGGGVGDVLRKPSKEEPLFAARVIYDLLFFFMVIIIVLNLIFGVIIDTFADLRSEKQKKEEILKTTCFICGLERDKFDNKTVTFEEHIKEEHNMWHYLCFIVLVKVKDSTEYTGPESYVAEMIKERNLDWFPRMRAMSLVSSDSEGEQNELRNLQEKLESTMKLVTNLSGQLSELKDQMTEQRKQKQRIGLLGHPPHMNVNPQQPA
# UniProt Q92830, whole entry, looked up: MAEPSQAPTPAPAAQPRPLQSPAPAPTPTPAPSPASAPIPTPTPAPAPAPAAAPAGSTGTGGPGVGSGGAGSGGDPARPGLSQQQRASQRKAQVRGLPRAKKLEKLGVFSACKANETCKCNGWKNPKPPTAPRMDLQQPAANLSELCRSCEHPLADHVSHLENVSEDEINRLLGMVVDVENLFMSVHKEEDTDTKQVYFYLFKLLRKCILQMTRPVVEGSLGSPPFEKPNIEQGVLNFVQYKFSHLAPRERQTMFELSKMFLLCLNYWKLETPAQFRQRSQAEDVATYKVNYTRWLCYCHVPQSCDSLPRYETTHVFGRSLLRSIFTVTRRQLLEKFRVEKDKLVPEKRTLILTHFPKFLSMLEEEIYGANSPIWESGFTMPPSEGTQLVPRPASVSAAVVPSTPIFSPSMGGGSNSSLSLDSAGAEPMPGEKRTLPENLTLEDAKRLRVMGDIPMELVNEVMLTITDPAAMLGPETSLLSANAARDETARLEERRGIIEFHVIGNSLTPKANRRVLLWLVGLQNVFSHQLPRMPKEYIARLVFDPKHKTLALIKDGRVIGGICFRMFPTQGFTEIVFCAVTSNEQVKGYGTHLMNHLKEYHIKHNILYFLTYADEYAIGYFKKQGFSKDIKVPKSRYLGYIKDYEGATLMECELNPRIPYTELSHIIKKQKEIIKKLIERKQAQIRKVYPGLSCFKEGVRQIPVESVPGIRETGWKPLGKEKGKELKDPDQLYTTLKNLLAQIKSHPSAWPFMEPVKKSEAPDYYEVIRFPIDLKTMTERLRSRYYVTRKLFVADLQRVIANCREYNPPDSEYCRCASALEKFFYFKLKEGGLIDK
# UniProt O94953: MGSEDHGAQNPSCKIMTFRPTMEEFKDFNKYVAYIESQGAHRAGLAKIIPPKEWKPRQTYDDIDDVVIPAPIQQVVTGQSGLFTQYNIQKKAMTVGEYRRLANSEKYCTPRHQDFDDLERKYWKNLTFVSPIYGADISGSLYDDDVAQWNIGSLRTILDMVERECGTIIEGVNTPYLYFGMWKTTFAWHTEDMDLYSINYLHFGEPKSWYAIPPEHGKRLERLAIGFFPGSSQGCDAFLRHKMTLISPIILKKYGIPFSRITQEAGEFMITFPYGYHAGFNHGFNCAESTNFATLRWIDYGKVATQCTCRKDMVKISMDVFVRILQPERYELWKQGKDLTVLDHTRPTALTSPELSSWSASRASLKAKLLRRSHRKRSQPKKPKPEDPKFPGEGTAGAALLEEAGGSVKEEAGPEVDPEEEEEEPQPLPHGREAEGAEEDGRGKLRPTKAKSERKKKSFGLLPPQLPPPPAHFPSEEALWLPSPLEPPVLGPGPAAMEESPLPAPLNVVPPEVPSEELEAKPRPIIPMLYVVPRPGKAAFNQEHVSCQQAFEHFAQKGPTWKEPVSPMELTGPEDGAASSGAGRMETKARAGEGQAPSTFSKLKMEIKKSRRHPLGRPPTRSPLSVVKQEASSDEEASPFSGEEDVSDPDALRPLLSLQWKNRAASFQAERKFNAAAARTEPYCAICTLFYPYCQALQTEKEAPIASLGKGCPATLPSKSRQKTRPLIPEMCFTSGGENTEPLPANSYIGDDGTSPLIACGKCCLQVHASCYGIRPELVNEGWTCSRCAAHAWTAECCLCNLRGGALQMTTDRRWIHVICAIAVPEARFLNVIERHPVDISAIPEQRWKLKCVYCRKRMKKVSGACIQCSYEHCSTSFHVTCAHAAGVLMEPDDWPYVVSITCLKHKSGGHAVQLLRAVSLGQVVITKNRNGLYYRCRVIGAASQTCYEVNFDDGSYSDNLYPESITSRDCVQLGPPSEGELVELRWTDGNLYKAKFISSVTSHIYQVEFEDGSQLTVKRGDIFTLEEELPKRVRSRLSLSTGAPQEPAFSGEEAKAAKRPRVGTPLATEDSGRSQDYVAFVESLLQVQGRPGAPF
# UniProt O60674: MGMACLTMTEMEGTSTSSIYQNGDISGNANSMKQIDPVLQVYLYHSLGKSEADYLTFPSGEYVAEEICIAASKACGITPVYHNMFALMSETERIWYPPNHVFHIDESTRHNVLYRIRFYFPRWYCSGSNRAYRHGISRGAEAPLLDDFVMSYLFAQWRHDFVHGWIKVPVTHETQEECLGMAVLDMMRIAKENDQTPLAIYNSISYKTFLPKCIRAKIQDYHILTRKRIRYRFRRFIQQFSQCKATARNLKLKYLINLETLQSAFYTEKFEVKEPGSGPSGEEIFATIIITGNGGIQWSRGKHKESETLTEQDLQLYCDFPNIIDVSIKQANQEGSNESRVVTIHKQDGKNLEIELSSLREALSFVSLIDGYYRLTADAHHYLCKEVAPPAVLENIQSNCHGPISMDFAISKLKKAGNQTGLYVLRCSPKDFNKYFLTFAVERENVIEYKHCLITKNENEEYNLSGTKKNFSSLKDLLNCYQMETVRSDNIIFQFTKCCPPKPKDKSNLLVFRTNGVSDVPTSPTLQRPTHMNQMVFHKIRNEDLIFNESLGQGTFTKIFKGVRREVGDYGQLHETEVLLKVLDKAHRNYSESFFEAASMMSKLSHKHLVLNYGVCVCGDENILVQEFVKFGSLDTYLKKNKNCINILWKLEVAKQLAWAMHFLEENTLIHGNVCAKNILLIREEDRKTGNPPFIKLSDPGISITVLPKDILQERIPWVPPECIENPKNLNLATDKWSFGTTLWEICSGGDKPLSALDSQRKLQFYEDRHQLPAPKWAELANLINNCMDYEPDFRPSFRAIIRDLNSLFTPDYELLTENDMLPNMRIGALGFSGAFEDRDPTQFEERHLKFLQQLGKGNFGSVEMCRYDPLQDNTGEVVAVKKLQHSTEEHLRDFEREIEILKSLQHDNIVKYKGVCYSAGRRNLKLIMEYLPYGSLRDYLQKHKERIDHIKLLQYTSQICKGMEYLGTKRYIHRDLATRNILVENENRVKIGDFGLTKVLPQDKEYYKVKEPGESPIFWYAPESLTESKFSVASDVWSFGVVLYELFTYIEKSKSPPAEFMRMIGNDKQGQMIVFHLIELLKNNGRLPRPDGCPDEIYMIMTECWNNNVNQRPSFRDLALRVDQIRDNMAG
# UniProt O94819: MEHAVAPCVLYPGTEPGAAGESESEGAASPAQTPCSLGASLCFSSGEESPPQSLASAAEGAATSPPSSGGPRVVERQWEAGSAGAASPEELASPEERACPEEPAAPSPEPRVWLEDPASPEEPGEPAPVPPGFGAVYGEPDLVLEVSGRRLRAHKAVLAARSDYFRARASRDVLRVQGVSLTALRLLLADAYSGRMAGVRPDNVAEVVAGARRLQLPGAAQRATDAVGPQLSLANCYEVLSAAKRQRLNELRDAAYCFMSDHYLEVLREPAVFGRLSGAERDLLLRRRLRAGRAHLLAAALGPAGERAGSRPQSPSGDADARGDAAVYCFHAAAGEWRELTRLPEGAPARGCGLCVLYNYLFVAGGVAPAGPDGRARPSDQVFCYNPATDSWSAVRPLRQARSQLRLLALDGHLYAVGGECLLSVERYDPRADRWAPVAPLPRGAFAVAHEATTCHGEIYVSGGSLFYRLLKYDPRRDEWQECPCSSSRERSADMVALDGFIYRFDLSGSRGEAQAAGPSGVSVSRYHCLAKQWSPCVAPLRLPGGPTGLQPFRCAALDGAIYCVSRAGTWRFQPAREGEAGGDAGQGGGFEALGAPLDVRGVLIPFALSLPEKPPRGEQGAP
# The list shows a part of the results.
# Compound: Cc1cc(ccc1-c1ccccc1)C(=O)N1CCCN(CC1)C(=O)CCl [compound 10]
# Assay: probe-labelled cysteine peptide fold change vs DMSO (competition) (log2 fold change); higher = less target engagement (more negative = stronger competition)
# Conditions: THP-1, incubation time: 4 h
# 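Note: competitive profiling in live THP-1 cells: cysteine peptides tagged with an iodoacetamide desthiobiotin (IA-DTB) probe, intensity after compound treatment relative to DMSO-treated cells.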
Target,probe-labelled cysteine peptide fold change (10 µM),probe-labelled cysteine peptide fold change (50 µM)
KIF20B_Q96Q89_80_ELESEGCVHILDSQTVVLK (UniProt Q96Q89),-0.0444,-0.089
KDM5C_P41229_267_EGPECPPTVVVK (UniProt P41229),-0.2,0.0842
KIF14_Q15058_1418_AASVQEEFMDAVCDGVGLGMK (UniProt Q15058),0.145,0.156
ITPR3_Q14573_1387_CTSLLPLEDVVSVVTHEDCITEVK (UniProt Q14573),0.223,0.104
KANK2_Q63ZY3_562_QECQLSR (UniProt Q63ZY3),-0.03,-0.579
KIF1B_O60333_356_CNAVINEDPNAK (UniProt O60333),-0.214,0.131
JMJD1C_Q15652_508_CVIDITNDTNLEK (UniProt Q15652),-0.239,-0.0495
KHDC4_Q7Z7F0_116_SKDDLVVAEVEINDVPLTCR (UniProt Q7Z7F0),-0.146,-0.301
ITPR1_Q14643_2277_AQPVLYWCAR (UniProt Q14643),0.0331,-0.0613
KIAA1958_Q8N8K9_246_PKPQTHAGPSCVGSAK (UniProt Q8N8K9),-0.307,-0.781
KARS_Q15046_434_AVECPPPR (UniProt Q15046),-0.237,0.0645
KCTD12_Q96CX2_50_CTVVSVPDSLLWR (UniProt Q96CX2),0.0972,-0.28
KIF15_Q9NS87_999_TSVCEK (UniProt Q9NS87),-0.0462,-0.141
KATNB1_Q9BVA0_499_GHDTMCVVLTSR (UniProt Q9BVA0),0.281,0.296
KEAP1_Q14145_77_LSQQLCDVTLQVK (UniProt Q14145),0.124,0.0543
KIF11_P52732_723_QTHSQELCK (UniProt P52732),0.0314,-0.326
KHDC4_Q7Z7F0_280_GSGCIEPASGR (UniProt Q7Z7F0),0.0612,-0.00392
KDM2A_Q9Y2K7_840_VLVQHCPAR (UniProt Q9Y2K7),0.0814,-0.36
KDM3B_Q7LBC6_937_EQEQDDSTVACR (UniProt Q7LBC6),-0.126,0.269

Target,probe-labelled cysteine peptide fold change (10 µM),probe-labelled cysteine peptide fold change (50 µM)
KAT2A_Q92830_815_EYNPPDSEYCR (UniProt Q92830),-0.143,0.554
KDM4B_O94953_13_GSEDHGAQNPSCK (UniProt O94953),-0.0382,-0.113
KIF20A_O95235_809_AACIAEQYHTVLK (UniProt O95235),0.0927,-0.075
ITPR1_Q14643_1255_LAHEFLQNFCAGNQQNQALLHK (UniProt Q14643),0.149,0.339
ITPR1_Q14643_1394_MDENSPLMYHIHLVELLAVCTEGK (UniProt Q14643),0.39,0.358
JAK2_O60674_178_VPVTHETQEECLGMAVLDMMR (UniProt O60674),-0.094,0.027
KCNAB2_Q13303_248_IGVGAMTWSPLACGIVSGK (UniProt Q13303),-0.111,-0.222
KDM1A_O60341_623_CDAVLCTLPLGVLK (UniProt O60341),0.19,0.403
KBTBD11_O94819_485_RDEWQECPCSSSR (UniProt O94819),0.0591,-0.354
KDM3B_Q7LBC6_569_QSLESLSSGLCK (UniProt Q7LBC6),-0.273,-0.616
KDM4A_O75164_763_ASEDWMCSR (UniProt O75164),0.2,0.0792
KDM3A_Q9Y4C1_251_IVDPSLIHVEVVHDNLVTCGNSAR (UniProt Q9Y4C1),-0.332,-0.746
ITPR2_Q14571_1415_VVTHDDCIPEVK (UniProt Q14571),-0.0184,0.158
KIAA0100_Q14667_471_GVLTVDHLCWR (UniProt Q14667),0.0373,0.124
KDM4A_O75164_917_FYQCEVVR (UniProt O75164),0.115,0.00976
ITPR2_Q14571_2087_NAYNQGLECDHGDDEGGDDGVSPK (UniProt Q14571),-0.133,-0.122
KIF11_P52732_704_QCGNLTEDLK (UniProt P52732),0.0939,0.172
JMJD6_Q6NYC1_207_WCLFPTSTPR (UniProt Q6NYC1),0.164,-0.0425

# Copied from the entries so far (9 entries):
Target,probe-labelled cysteine peptide fold change (10 µM),probe-labelled cysteine peptide fold change (50 µM)
KAT2A_Q92830_815_EYNPPDSEYCR (UniProt Q92830),-0.143,0.554
KDM4B_O94953_13_GSEDHGAQNPSCK (UniProt O94953),-0.0382,-0.113
KIF20A_O95235_809_AACIAEQYHTVLK (UniProt O95235),0.0927,-0.075
ITPR1_Q14643_1255_LAHEFLQNFCAGNQQNQALLHK (UniProt Q14643),0.149,0.339
ITPR1_Q14643_1394_MDENSPLMYHIHLVELLAVCTEGK (UniProt Q14643),0.39,0.358
JAK2_O60674_178_VPVTHETQEECLGMAVLDMMR (UniProt O60674),-0.094,0.027
KCNAB2_Q13303_248_IGVGAMTWSPLACGIVSGK (UniProt Q13303),-0.111,-0.222
KDM1A_O60341_623_CDAVLCTLPLGVLK (UniProt O60341),0.19,0.403
KBTBD11_O94819_485_RDEWQECPCSSSR (UniProt O94819),0.0591,-0.354
